Data: the supplement of paper PMC10849652
The list shows a part of the results.

Protein sequences, listed by entry. Tags and fused reporters are not part of them. Lines headed by an entry give the natural chain unless they say otherwise; changes in a name come on top.
UniProt Q96S21: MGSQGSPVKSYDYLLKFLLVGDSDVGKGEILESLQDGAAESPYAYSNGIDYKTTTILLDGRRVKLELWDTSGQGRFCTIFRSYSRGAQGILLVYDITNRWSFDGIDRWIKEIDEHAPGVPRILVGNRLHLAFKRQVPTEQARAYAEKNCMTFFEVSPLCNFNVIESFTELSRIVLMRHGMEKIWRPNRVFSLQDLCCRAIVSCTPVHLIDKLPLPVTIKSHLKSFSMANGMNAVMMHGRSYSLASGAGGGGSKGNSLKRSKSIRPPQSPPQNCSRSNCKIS
UniProt Q92696: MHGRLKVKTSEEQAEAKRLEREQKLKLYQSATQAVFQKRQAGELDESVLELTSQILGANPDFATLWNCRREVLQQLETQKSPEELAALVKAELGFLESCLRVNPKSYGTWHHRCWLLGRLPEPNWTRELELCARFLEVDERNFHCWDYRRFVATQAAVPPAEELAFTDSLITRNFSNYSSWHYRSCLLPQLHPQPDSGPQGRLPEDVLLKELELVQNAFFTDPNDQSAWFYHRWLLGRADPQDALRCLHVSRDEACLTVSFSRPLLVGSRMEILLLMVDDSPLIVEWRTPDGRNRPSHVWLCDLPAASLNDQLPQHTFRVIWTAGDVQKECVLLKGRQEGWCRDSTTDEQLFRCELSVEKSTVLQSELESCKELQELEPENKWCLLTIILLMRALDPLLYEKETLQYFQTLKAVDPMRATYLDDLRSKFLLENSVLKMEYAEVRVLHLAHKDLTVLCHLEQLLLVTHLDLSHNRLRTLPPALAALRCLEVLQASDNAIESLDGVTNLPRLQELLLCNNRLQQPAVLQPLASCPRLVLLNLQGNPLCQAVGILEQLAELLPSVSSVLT
UniProt P54136: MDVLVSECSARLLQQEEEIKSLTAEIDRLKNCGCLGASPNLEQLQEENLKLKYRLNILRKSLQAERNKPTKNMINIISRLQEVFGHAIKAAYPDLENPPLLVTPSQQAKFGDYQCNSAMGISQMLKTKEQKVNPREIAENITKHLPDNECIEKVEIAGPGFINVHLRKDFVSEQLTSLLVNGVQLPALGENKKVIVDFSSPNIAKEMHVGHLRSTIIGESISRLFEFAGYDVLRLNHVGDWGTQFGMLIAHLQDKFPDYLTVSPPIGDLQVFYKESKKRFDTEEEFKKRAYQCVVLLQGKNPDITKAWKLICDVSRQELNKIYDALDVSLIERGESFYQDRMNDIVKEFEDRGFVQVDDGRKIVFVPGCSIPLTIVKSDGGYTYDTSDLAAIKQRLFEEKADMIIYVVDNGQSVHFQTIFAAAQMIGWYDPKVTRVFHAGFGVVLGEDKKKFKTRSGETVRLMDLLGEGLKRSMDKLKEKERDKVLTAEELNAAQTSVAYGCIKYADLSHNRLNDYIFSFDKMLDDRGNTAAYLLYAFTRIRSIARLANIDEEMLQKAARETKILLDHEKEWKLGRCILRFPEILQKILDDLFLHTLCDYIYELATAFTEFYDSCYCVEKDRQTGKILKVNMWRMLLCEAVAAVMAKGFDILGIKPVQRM
UniProt Q9H082: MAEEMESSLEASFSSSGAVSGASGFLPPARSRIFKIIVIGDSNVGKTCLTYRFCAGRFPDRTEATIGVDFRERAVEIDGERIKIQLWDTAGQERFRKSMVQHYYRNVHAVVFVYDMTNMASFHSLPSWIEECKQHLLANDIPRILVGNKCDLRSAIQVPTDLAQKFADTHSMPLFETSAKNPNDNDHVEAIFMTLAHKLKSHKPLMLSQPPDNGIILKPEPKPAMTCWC
UniProt Q8N0T1: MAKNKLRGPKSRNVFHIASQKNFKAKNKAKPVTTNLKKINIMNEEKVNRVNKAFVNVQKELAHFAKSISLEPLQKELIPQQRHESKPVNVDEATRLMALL
UniProt Q5T8P6: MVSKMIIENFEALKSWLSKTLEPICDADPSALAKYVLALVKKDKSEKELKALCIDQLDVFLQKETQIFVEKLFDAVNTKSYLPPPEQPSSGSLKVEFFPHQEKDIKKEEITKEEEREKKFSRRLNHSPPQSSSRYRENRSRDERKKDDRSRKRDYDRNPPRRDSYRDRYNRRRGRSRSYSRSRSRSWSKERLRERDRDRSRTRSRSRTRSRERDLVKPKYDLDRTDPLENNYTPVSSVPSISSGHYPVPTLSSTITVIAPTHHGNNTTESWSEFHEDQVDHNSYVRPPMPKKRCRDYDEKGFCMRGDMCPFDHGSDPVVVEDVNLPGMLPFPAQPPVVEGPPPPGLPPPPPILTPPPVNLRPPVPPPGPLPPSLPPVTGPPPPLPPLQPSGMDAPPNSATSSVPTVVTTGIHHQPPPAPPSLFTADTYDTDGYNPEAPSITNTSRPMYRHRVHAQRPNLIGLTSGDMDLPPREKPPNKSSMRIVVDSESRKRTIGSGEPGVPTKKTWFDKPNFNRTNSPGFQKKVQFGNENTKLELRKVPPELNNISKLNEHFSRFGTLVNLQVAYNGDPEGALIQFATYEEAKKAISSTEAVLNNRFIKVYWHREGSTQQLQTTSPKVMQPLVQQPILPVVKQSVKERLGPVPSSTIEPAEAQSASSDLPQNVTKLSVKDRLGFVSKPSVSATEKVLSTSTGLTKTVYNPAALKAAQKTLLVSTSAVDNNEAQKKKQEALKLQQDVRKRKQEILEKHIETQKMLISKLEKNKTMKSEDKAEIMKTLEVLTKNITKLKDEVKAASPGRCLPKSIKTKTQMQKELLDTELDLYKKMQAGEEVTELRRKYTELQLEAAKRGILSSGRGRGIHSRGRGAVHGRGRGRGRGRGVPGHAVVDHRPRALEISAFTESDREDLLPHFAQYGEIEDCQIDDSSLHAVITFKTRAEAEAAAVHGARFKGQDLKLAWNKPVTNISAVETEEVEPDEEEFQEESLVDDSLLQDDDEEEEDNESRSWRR
UniProt Q8TDY2, whole entry, looked up: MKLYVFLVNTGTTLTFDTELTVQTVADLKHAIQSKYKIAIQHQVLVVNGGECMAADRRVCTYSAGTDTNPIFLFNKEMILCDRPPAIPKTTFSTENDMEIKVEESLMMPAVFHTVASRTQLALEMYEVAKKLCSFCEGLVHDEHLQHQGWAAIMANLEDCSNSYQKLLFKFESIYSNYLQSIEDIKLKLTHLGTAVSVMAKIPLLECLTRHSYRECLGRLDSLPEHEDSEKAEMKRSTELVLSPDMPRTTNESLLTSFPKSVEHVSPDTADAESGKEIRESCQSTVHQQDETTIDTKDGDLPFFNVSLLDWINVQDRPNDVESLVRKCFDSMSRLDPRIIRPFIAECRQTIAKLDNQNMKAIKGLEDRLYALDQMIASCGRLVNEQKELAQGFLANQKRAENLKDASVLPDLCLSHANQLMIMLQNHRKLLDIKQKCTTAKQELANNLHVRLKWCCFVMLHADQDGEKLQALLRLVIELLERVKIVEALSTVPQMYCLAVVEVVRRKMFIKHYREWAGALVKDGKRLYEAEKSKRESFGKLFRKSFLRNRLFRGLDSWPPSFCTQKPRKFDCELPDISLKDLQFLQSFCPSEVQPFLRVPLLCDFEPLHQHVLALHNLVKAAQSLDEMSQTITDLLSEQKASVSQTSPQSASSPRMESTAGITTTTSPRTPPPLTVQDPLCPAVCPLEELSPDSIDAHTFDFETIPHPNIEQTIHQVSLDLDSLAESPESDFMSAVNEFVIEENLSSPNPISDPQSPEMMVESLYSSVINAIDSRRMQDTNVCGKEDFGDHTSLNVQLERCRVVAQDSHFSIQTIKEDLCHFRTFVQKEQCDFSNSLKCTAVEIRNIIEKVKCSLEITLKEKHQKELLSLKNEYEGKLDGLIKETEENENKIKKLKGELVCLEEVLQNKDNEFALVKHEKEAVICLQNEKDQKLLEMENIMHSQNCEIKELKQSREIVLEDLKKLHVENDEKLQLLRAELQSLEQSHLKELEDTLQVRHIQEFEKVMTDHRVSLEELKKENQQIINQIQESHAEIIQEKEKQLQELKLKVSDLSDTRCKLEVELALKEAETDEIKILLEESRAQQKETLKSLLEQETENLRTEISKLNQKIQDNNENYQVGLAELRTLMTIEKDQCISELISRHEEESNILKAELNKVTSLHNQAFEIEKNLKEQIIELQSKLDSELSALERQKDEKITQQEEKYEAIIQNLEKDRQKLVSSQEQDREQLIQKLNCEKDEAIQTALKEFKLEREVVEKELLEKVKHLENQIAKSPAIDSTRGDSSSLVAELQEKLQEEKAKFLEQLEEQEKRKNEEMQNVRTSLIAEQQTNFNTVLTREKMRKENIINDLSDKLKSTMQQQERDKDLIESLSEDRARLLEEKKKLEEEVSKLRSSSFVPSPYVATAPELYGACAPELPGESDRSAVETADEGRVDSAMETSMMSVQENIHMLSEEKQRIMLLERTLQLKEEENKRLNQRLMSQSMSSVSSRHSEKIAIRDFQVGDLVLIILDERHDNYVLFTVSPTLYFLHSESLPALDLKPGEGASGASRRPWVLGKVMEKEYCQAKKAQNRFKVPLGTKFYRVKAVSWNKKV
UniProt Q96PK6: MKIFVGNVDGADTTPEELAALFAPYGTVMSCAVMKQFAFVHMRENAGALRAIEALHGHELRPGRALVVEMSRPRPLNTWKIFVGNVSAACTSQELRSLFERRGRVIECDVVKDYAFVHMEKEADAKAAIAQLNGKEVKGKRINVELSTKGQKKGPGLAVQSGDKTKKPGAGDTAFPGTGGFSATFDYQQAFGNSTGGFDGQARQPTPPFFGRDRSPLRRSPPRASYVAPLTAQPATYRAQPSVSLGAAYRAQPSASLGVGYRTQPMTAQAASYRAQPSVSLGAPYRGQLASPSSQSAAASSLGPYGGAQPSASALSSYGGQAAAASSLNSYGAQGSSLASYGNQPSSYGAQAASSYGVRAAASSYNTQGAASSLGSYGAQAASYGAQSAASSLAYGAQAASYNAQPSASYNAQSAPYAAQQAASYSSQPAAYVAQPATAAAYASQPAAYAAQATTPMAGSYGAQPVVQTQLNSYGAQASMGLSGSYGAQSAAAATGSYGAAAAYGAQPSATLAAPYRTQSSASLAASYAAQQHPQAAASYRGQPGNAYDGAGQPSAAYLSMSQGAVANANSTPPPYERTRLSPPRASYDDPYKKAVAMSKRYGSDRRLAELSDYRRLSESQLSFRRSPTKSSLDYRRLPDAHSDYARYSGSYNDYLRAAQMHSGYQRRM
UniProt P11233: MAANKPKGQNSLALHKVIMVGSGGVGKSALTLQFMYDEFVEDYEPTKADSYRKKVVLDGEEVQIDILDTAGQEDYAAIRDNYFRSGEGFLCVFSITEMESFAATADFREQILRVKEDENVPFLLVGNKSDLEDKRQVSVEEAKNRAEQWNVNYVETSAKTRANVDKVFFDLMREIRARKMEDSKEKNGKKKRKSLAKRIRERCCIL
UniProt P51151: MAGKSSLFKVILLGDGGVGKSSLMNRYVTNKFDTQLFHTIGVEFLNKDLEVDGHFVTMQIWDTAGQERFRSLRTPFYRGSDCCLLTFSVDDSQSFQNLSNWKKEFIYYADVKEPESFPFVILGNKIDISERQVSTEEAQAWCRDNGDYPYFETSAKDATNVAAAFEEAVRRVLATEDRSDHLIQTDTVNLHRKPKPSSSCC
UniProt Q96D70: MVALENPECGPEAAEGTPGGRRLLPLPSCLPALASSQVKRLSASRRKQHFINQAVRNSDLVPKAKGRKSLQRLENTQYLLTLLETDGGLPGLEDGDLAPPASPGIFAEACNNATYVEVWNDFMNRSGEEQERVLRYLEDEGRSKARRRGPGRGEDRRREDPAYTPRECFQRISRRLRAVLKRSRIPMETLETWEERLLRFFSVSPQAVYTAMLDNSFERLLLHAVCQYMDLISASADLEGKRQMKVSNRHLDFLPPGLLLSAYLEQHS

What follows are targets tested with CNc1nc(-c2ccc3c(N)n[nH]c3c2)cc(N2C[C@@H](C(=O)NC3CCCCC3)CC[C@H]2C)n1 (assay: log2 fold change, soluble protein after heating vs DMSO (PISA); higher = thermal stabilisation; K562 cells, 10 uM, 30 min; active = over 0.2 and 3.5 SD of the protein, either way, in both replicates (recomputed)).
Procedure, shortened: (§1)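 K562 cells at 2×10^6 cells/mL were treated with 10 μM compound for 30 min. Aliquots were heated for 3 min across 48°C-58°C, pooled, and extracted in PBS with 0.5% NP-40 at 4°C; soluble protein was the supernatant after 21,000xg for 90 min. Soluble protein was quantified by TMTpro 16plex LC-MS/MS with channel sums equalised, and reported as log2 fold change in thermal stability against DMSO controls, with values from duplicates.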
With RBM22 (UniProt Q9NW64) the log2 fold change was inactive: -0.155. With RBM12 (UniProt Q9NTZ6) the log2 fold change was inactive: -0.02. RBM27 (UniProt Q9P2N5) was tested, and the log2 fold change was inactive: 0.033. With RAF1 isoform 2 (UniProt P04049) the log2 fold change was inactive: 0.176. In the case of RAD50, A0A494C0Y7, the log2 fold change is reported as inactive: 0.198. In the case of RAD51D (UniProt O75771), the log2 fold change is reported as inactive: 0.098. For RABGAP1L isoform 3 (UniProt Q5R372), the log2 fold change was inactive: -0.005. With RAB40C (UniProt Q96S21) the log2 fold change was inactive: 0.129. In the case of RABGGTA (UniProt Q92696), the log2 fold change is reported as inactive: 0.001. RARS (UniProt P54136) was tested, and the log2 fold change was inactive: 0.138. In the case of RANBP2 (UniProt P49792), the log2 fold change is reported as inactive: -0.016. In the case of RAPGEF4 (UniProt Q8WZA2), the log2 fold change is reported as inactive: 0.083. In the case of RAD50 isoform 2 (UniProt Q92878), the log2 fold change is reported as inactive: 0.006. In the case of RAB11FIP1 (UniProt Q6WKZ4), the log2 fold change is reported as inactive: -0.043. In the case of RAB5IF isoform 5 (UniProt Q9BUV8), the log2 fold change is reported as inactive: -0.018. RAC3 (UniProt P60763) was tested, and the log2 fold change was inactive: 0.085. With RBM17 (UniProt Q96I25) the log2 fold change was inactive: -0.025. For RANBP6 (UniProt O60518), the log2 fold change was inactive: -0.151. For RAB33B (UniProt Q9H082), the log2 fold change was inactive: -0.031. For RAP1GDS1 isoform 5 (UniProt P52306), the log2 fold change was inactive: -0.024. For RBIS (UniProt Q8N0T1), the log2 fold change was inactive: -0.037. In the case of RBM26 isoform 2 (UniProt Q5T8P6), the log2 fold change is reported as inactive: 0.025. In the case of RB1CC1 (UniProt Q8TDY2), the log2 fold change is reported as inactive: 0.049. With RARS2 (UniProt Q5T160) the log2 fold change was inactive: -0.042. For RAD51 (UniProt Q06609), the log2 fold change was inactive: -0.011. In the case of RBM14 (UniProt Q96PK6), the log2 fold change is reported as inactive: -0.063. For RAVER1 (UniProt E9PAU2), the log2 fold change was inactive: -0.087. RALA (UniProt P11233) was tested, and the log2 fold change was inactive: 0.086. RABGAP1L isoform 5 (UniProt Q5R372) was tested, and the log2 fold change was inactive: -0.071. With RAB9A (UniProt P51151) the log2 fold change was inactive: -0.02. RBBP7 (UniProt Q16576) was tested, and the log2 fold change was inactive: -0.021. RAC1 (UniProt P63000) was tested, and the log2 fold change was inactive: 0.043. With R3HDM4 (UniProt Q96D70) the log2 fold change was inactive: 0.057.

Each target was assayed with COC(=O)N[C@@H](C)CNc1nccc(-c2cn(C(C)C)nc2-c2cc(Cl)cc(NS(C)(=O)=O)c2F)n1 [encorafenib] in the same assay as above.
Procedure, shortened: as §1
With RBM22 (UniProt Q9NW64) the log2 fold change was inactive: 0.036. RBM12 (UniProt Q9NTZ6) was tested, and the log2 fold change was inactive: 0.061. With RBM27 (UniProt Q9P2N5) the log2 fold change was inactive: -0.011. With RAF1 isoform 2 (UniProt P04049) the log2 fold change was active: 0.737. RAD50, A0A494C0Y7 was tested, and the log2 fold change was inactive: 0.15. In the case of RAD51D (UniProt O75771), the log2 fold change is reported as inactive: 0.033. RABGAP1L isoform 3 (UniProt Q5R372) was tested, and the log2 fold change was inactive: 0.078. In the case of RAB40C (UniProt Q96S21), the log2 fold change is reported as inactive: 0.025. For RABGGTA (UniProt Q92696), the log2 fold change was inactive: 0.004. RARS (UniProt P54136) was tested, and the log2 fold change was inactive: 0.217. For RANBP2 (UniProt P49792), the log2 fold change was inactive: -0.045. For RAPGEF4 (UniProt Q8WZA2), the log2 fold change was inactive: 0.059. RAD50 isoform 2 (UniProt Q92878) was tested, and the log2 fold change was inactive: 0.008. With RAB11FIP1 (UniProt Q6WKZ4) the log2 fold change was inactive: 0.052. For RAB5IF isoform 5 (UniProt Q9BUV8), the log2 fold change was inactive: 0.08. For RAC3 (UniProt P60763), the log2 fold change was inactive: -0.07. With RBM17 (UniProt Q96I25) the log2 fold change was inactive: 0.05. RANBP6 (UniProt O60518) was tested, and the log2 fold change was inactive: 0.112. In the case of RAB33B (UniProt Q9H082), the log2 fold change is reported as inactive: 0. With RAP1GDS1 isoform 5 (UniProt P52306) the log2 fold change was inactive: 0.176. RBIS (UniProt Q8N0T1) was tested, and the log2 fold change was inactive: 0.022. In the case of RBM26 isoform 2 (UniProt Q5T8P6), the log2 fold change is reported as inactive: 0.03. With RB1CC1 (UniProt Q8TDY2) the log2 fold change was inactive: -0.104. In the case of RARS2 (UniProt Q5T160), the log2 fold change is reported as inactive: 0.026. In the case of RAD51 (UniProt Q06609), the log2 fold change is reported as inactive: 0.005. RBM14 (UniProt Q96PK6) was tested, and the log2 fold change was inactive: -0.045. For RAVER1 (UniProt E9PAU2), the log2 fold change was inactive: 0.105. For RALA (UniProt P11233), the log2 fold change was inactive: 0.033. With RAB9A (UniProt P51151) the log2 fold change was inactive: -0.012. RBBP7 (UniProt Q16576) was tested, and the log2 fold change was inactive: -0.007. In the case of RAC1 (UniProt P63000), the log2 fold change is reported as inactive: -0.064. With R3HDM4 (UniProt Q96D70) the log2 fold change was inactive: 0.065.

The targets below were run with COC(=O)[C@H](CCSC)NC(=O)C1=C(C=C(C=C1)NC[C@H](CS)N)C2=CC=CC=C2 in the same assay as above.
Procedure, shortened: as §1
With RBM22 (UniProt Q9NW64) the log2 fold change was inactive: 0.012. For RBM12 (UniProt Q9NTZ6), the log2 fold change was inactive: -0.052. In the case of RBM27 (UniProt Q9P2N5), the log2 fold change is reported as inactive: -0.042. RAF1 isoform 2 (UniProt P04049) was tested, and the log2 fold change was inactive: -0.069. In the case of RAD50, A0A494C0Y7, the log2 fold change is reported as inactive: -0.055. In the case of RAD51D (UniProt O75771), the log2 fold change is reported as inactive: -0.033. With RABGAP1L isoform 3 (UniProt Q5R372) the log2 fold change was inactive: 0.035. RAB40C (UniProt Q96S21) was tested, and the log2 fold change was inactive: 0.056. In the case of RABGGTA (UniProt Q92696), the log2 fold change is reported as inactive: -0.024. RARS (UniProt P54136) was tested, and the log2 fold change was inactive: -0.024. RANBP2 (UniProt P49792) was tested, and the log2 fold change was inactive: -0.03. RAPGEF4 (UniProt Q8WZA2) was tested, and the log2 fold change was inactive: -0.123. For RAD50 isoform 2 (UniProt Q92878), the log2 fold change was inactive: -0.019. With RAB11FIP1 (UniProt Q6WKZ4) the log2 fold change was inactive: -0.019. RAB5IF isoform 5 (UniProt Q9BUV8) was tested, and the log2 fold change was inactive: 0.031. In the case of RAC3 (UniProt P60763), the log2 fold change is reported as inactive: 0.027. RBM17 (UniProt Q96I25) was tested, and the log2 fold change was inactive: -0.044. With RAB33B (UniProt Q9H082) the log2 fold change was inactive: 0.032. For RAP1GDS1 isoform 5 (UniProt P52306), the log2 fold change was inactive: 0.139. In the case of RBIS (UniProt Q8N0T1), the log2 fold change is reported as inactive: 0.03. RBM26 isoform 2 (UniProt Q5T8P6) was tested, and the log2 fold change was inactive: -0.032. RB1CC1 (UniProt Q8TDY2) was tested, and the log2 fold change was inactive: -0.025. In the case of RARS2 (UniProt Q5T160), the log2 fold change is reported as inactive: -0.003. For RAD51 (UniProt Q06609), the log2 fold change was inactive: -0.041. With RBM14 (UniProt Q96PK6) the log2 fold change was inactive: 0.18. In the case of RAVER1 (UniProt E9PAU2), the log2 fold change is reported as inactive: -0.065. For RALA (UniProt P11233), the log2 fold change was inactive: 0.004. For RAB9A (UniProt P51151), the log2 fold change was inactive: -0.013. With RAC1 (UniProt P63000) the log2 fold change was inactive: -0.037. R3HDM4 (UniProt Q96D70) was tested, and the log2 fold change was inactive: 0.035.
